From publication doi:10.1101/854158 (bioRxiv, 2019)
These are yes or no findings as the source states them, for the method shown. Some binding calls cover weakened binding; strength is not graded here.

By UniProt entry, the sequences of proteins in these tests, tags left out.
UniProt Q9BXW9: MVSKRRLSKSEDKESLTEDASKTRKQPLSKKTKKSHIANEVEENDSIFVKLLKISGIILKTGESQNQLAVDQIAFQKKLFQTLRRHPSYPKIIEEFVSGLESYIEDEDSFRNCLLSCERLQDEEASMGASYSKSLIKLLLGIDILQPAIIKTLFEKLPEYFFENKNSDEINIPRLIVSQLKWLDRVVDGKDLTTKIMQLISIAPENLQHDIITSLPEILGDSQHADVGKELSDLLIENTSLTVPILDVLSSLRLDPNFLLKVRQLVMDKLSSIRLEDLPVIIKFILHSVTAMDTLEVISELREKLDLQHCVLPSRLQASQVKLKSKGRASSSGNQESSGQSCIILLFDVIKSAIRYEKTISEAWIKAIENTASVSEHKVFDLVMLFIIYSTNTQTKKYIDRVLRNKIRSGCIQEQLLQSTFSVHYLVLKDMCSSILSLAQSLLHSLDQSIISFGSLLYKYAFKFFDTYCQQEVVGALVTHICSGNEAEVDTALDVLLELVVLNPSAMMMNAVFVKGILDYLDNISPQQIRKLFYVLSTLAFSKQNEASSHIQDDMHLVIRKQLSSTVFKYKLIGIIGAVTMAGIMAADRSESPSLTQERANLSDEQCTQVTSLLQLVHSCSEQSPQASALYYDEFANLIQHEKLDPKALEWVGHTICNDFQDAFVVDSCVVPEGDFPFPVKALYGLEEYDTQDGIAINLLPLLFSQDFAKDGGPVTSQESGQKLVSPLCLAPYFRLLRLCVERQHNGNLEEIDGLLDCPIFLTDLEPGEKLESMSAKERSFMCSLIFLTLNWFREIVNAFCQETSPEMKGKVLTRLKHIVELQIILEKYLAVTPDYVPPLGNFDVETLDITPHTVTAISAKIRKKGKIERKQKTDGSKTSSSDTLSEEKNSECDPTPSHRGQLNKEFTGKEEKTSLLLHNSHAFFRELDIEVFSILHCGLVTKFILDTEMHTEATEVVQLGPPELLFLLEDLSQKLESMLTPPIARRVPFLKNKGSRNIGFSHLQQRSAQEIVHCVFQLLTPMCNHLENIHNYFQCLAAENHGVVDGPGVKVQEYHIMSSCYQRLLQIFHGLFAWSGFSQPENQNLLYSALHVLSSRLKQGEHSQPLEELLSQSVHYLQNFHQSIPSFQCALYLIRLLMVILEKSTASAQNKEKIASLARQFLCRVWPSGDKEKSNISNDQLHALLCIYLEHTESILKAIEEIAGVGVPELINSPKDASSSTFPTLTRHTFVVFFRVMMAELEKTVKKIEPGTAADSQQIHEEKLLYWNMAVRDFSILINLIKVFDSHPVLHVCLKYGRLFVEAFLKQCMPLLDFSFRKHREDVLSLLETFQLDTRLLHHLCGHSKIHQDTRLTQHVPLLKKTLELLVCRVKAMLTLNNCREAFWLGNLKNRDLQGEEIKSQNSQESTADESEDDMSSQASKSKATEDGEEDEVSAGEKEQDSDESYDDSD

T1: FANCL (human) (UniProt Q9NW38)
T1 sequence: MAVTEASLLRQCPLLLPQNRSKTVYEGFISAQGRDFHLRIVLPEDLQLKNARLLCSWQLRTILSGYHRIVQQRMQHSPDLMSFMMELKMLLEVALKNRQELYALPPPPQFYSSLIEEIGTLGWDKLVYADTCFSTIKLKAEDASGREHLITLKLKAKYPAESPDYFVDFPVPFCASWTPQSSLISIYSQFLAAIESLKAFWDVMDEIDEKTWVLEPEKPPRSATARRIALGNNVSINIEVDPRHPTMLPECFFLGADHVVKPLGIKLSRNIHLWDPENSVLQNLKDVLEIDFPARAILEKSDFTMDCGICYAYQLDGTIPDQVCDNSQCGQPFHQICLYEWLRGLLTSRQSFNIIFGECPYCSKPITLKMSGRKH

T2: FANCE (human, UniProt Q9HB96 1-536)
T2 sequence: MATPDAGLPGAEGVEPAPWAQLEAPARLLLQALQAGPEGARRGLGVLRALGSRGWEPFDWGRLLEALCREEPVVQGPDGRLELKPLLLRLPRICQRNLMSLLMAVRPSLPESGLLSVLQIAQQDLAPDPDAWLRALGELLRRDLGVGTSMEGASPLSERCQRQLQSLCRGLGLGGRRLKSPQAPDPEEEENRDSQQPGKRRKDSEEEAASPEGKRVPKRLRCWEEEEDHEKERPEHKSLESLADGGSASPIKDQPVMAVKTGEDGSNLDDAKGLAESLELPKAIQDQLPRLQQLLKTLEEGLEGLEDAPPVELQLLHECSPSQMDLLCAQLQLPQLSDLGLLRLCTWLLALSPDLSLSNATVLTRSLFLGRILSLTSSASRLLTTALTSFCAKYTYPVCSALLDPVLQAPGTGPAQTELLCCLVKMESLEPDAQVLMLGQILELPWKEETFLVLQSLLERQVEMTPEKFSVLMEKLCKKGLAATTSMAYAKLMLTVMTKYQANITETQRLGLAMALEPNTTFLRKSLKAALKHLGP

T3: FAAP100 (human), Q0VG06
T3 chain: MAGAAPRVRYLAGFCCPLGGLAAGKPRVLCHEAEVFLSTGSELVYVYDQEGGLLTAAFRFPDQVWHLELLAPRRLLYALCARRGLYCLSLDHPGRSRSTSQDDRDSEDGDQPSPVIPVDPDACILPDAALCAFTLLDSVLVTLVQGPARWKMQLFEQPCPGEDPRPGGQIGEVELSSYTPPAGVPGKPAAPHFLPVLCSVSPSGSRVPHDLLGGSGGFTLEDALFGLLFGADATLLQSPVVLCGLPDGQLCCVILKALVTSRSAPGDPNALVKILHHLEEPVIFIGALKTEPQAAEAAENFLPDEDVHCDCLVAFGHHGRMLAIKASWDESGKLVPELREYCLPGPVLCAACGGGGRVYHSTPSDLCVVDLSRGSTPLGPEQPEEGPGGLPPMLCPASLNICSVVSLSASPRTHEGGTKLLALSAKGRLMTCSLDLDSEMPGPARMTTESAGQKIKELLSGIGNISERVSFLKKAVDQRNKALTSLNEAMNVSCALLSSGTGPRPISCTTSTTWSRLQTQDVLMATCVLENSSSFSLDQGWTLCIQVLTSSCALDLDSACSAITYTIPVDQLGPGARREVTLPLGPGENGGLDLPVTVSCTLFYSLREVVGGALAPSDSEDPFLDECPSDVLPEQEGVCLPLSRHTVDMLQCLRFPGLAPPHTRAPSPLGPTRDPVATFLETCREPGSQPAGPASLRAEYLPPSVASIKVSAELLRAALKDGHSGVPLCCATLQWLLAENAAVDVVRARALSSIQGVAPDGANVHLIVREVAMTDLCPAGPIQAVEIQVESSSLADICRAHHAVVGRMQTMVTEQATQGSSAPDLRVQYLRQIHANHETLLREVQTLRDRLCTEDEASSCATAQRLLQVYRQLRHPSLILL


Assays:
Experiment in all cases: cryo-EM structure
FANCL (human) = biological target: T1, FANCL (human)
FANCE = biological target: T2, FANCE
FAAP100 (human), Q0VG06 = biological target: T3, FAAP100 (human), Q0VG06; conditions: remark: other sources report otherwise

Row | binding (FANCL (human)) | binding (FANCE) | binding (FAAP100 (human), Q0VG06) | Molecule
1 | binds | binds |  | FANCD2 (from UniProt Q9BXW9 1-1451)
2 |  |  | binds | FAAP100 (natural protein) MAGAAPRVRYLAGFCCPLGGLAAGKPRVLCHEAEVFLSTGSELVYVYDQEGGLLTAAFRFPDQVWHLELLAPRRLLYALCARRGLYCLSLDHPGRSRSTSQDDRDSEDGDQPSPVIPVDPDACILPDAALCAFTLLDSVLVTLVQGPARWKMQLFEQPCPGEDPRPGGQIGEVELSSYTPPAGVPGKPAAPHFLPVLCSVSPSGSRVPHDLLGGSGGFTLEDALFGLLFGADATLLQSPVVLCGLPDGQLCCVILKALVTSRSAPGDPNALVKILHHLEEPVIFIGALKTEPQAAEAAENFLPDEDVHCDCLVAFGHHGRMLAIKASWDESGKLVPELREYCLPGPVLCAACGGGGRVYHSTPSDLCVVDLSRGSTPLGPEQPEEGPGGLPPMLCPASLNICSVVSLSASPRTHEGGTKLLALSAKGRLMTCSLDLDSEMPGPARMTTESAGQKIKELLSGIGNISERVSFLKKAVDQRNKALTSLNEAMNVSCALLSSGTGPRPISCTTSTTWSRLQTQDVLMATCVLENSSSFSLDQGWTLCIQVLTSSCALDLDSACSAITYTIPVDQLGPGARREVTLPLGPGENGGLDLPVTVSCTLFYSLREVVGGALAPSDSEDPFLDECPSDVLPEQEGVCLPLSRHTVDMLQCLRFPGLAPPHTRAPSPLGPTRDPVATFLETCREPGSQPAGPASLRAEYLPPSVASIKVSAELLRAALKDGHSGVPLCCATLQWLLAENAAVDVVRARALSSIQGVAPDGANVHLIVREVAMTDLCPAGPIQAVEIQVESSSLADICRAHHAVVGRMQTMVTEQATQGSSAPDLRVQYLRQIHANHETLLREVQTLRDRLCTEDEASSCATAQRLLQVYRQLRHPSLILL
